These are yes or no findings as the source states them, for the method shown. Some results given as binding are weak or reduced against the parent protein; the word gives no strength.
Experiments:
[1] = biological target: T1, human αIIbβ3 integrin on transfected CHO K1 cells (human) (UniProt P08514+P05106); test: adhesion of αIIbβ3 CHO cells to adsorbed fibrinogen
[2] = biological target: T1, human αIIbβ3 integrin on transfected CHO K1 cells (human); test: adhesion of αIIbβ3 CHO K1 cells to adsorbed fibrinogen

By UniProt entry, the sequences of proteins in these tests, tags left out. Where a name states a change or a piece, a line headed by the entry shows the natural chain unless it says otherwise.
UniProt P08514: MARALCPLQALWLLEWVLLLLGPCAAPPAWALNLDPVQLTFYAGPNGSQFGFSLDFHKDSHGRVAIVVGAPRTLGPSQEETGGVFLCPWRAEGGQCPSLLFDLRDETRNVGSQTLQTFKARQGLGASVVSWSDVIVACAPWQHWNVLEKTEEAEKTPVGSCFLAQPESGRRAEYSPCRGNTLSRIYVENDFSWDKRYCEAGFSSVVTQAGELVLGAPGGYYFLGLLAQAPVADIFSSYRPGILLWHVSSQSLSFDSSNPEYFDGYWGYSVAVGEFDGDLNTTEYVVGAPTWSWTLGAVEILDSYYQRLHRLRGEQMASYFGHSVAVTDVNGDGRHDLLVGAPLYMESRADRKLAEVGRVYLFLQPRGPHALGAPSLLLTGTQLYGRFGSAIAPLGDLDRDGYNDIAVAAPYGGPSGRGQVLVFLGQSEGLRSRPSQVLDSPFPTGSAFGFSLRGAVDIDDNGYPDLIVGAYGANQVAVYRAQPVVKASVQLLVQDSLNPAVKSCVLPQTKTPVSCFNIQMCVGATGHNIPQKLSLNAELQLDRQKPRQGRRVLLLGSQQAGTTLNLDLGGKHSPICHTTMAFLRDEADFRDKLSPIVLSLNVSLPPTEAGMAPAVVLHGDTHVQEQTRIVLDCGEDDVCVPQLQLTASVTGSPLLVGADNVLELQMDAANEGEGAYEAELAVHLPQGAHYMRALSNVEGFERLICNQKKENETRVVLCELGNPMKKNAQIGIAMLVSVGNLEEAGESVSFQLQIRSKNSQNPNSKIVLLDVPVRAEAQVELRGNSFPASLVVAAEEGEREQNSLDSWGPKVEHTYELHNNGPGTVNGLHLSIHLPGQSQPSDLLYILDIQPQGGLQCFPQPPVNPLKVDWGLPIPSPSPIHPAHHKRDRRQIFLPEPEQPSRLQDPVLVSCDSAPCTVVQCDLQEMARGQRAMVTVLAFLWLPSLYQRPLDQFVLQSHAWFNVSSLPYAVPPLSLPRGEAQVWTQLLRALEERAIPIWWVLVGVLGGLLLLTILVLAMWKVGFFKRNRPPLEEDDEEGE
UniProt P05106: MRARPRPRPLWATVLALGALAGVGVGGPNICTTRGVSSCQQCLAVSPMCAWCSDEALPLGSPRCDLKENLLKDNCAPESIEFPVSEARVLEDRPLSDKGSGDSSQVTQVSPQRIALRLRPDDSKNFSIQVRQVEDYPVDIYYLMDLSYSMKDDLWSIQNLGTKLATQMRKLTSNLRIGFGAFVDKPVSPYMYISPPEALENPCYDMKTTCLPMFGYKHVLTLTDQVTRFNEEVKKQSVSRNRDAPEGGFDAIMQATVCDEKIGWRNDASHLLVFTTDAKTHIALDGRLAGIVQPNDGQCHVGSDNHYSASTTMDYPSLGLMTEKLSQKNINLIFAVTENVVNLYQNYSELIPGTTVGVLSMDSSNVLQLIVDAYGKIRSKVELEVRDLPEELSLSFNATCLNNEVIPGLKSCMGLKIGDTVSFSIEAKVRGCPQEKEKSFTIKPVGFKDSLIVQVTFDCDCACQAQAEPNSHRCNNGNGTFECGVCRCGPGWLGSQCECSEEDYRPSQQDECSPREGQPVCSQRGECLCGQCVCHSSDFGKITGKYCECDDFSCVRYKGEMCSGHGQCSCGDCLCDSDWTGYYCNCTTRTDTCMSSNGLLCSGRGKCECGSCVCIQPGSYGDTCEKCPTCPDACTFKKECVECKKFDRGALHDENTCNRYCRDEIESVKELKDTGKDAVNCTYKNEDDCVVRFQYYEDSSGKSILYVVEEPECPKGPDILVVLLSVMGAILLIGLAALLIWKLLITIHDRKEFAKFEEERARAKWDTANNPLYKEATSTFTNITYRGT
UniProt P02671: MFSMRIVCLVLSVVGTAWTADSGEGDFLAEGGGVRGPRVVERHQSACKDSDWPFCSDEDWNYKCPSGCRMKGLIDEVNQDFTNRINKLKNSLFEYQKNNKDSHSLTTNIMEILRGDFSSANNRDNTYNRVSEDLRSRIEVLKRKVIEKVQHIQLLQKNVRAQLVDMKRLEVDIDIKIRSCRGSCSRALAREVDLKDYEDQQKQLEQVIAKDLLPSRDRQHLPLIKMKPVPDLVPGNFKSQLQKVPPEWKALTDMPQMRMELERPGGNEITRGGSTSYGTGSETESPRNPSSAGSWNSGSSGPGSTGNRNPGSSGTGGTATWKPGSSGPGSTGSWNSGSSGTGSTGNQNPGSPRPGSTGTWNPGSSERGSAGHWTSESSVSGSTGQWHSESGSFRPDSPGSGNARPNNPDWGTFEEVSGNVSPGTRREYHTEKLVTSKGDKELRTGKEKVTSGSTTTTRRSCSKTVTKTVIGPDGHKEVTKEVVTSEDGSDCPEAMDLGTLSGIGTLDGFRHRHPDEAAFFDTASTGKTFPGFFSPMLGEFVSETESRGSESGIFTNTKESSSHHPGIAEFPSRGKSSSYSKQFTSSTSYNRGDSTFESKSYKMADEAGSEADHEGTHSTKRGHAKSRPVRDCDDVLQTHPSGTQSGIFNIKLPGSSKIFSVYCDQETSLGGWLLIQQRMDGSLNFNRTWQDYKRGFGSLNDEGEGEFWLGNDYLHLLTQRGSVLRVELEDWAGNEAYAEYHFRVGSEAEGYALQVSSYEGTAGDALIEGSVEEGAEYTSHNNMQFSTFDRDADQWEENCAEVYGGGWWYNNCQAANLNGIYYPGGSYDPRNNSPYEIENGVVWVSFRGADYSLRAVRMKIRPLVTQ

Human fibrinogen (Fbg), adsorbed on a hydrophobic (dodecanethiol) monolayer (from UniProt P02671 20-629; P02675 31-491; P02679 27-437) (ligand)
binding [1]: binds | binding [2]: binds

Source: patent US20120252730A1, “PLATELET AGGREGATION INHIBITORS” (UNIVERSITY OF CHICAGO, priority 2009, published 2012)
